Laboratory results: PubChem BioAssay AID1159584 (Peter MacCallum Cancer Centre, 2016)

Screen: 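Genes whose loss is lethal only together with E-cadherin loss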 (primary screen)
System: human MCF10A breast epithelial cells, parental and CDH1-null
Reagent: siRNA against human genes
Detection: 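ATP luminescence (CellTiter-Glo) viability per line relative to mean mock wells over all plates, and the ratio of CDH1-null to parental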
Direction: CDH1-null / parental viability ratio: higher = CDH1-null cells survive relatively better than parental; CDH1-null viability vs mock: higher = more viable CDH1-null cells
The whole screen tested about 18,000 reagents; shown is a part drawn at random. Reagents against one gene are numbered here. Further read-outs or replicates are left out here. No sequences are given here. Not given: the amount of reagent, the time to read-out.

Target gene	reagent no.	CDH1-null / parental viability ratio	CDH1-null viability vs mock (fraction of mock)
MR1	1	1.32	1.27
EPB41L3	1	0.88	0.68
ATP5PD	1	0.95	0.99
SMAD2	1	1.11	0.84
CT45A1	1	1.03	0.77
BBOX1	1	0.96	0.92
BARX2	1	0.86	0.81
PLPP1	1	1.39	1.06
PELI2	1	0.94	0.91
ANKAR	1	1.19	0.81
FUCA1	1	1.15	1.1
SLC5A12	1	0.96	0.79
MAP3K6	1	1.06	1.08
POU2F2	1	0.96	0.78
FOCAD	1	0.98	0.89
PRDM7	1	1.19	1
CSRP3	1	0.82	0.62
UGT1A1	1	0.95	1.01
STRN	1	1.45	1.19
SCN3A	1	1.17	0.91
SPATA12	1	0.79	0.6
PSTPIP2	1	1.25	0.65
NPPB	1	1.02	0.94
PODXL2	1	0.89	0.64
PAQR9	1	0.75	0.36
COX4I2	1	0.98	1.02
EXOSC8	1	1.25	1.14
C8orf34	1	0.84	0.9
ZNF160	1	1.03	0.99
ITGB3BP	1	1.15	1.15
KLK3	1	1.42	0.57
MAFF	1	0.61	0.34
MAN1A1	1	1.3	1.14
ISOC2	1	1.05	0.67
ABL2	1	0.96	0.88
SLC14A2	1	1.3	1.18
VCF1	1	0.85	0.68
STOM	1	0.74	0.58
GABRD	1	1.19	0.76
WDR46	1	1.03	0.64
TEX13B	1	1.21	0.92
WDR82	1	1	0.76
C6orf89	1	1.3	0.78
UGT2B4	1	0.77	0.57
RNF41	1	0.71	0.56
BMS1	1	1.13	0.34
COL21A1	1	0.88	0.86
VPS13B	1	1.02	0.88
MESP2	1	1.08	1.15
MX1	1	0.55	0.45
FSIP2	1	1.1	0.92
FSIP2	2	1.24	0.62
PAGE5	1	1.38	0.76
SLC4A1AP	1	1.17	1.15
GCSH	1	0.91	0.75
ZMYM1	1	1.39	0.92
DENND2A	1	1	0.9
NRG1	1	0.68	0.54
CLMB	1	0.81	0.7
SH3RF3	1	0.96	0.65
GSTT2	1	0.89	0.84
MYO6	1	0.88	0.9
IFITM3	1	1	0.7
POTEE	1	1	0.44
LDOC1	1	0.92	0.57
BEND6	1	1.08	0.8
FADS3	1	0.67	0.64
ARID3B	1	1.5	0.78
